Measured values reported in patent publication US20080038257A1.
These are yes or no findings as the source states them, for the method shown. Some binding calls cover weakened binding; strength is not graded here.

Chains of the proteins cited; added tags and fusions are not shown. Lines headed by an entry give the natural chain unless they say otherwise; changes in a name come on top. Residues count along the entry.
UniProt P14210, residues 32-728: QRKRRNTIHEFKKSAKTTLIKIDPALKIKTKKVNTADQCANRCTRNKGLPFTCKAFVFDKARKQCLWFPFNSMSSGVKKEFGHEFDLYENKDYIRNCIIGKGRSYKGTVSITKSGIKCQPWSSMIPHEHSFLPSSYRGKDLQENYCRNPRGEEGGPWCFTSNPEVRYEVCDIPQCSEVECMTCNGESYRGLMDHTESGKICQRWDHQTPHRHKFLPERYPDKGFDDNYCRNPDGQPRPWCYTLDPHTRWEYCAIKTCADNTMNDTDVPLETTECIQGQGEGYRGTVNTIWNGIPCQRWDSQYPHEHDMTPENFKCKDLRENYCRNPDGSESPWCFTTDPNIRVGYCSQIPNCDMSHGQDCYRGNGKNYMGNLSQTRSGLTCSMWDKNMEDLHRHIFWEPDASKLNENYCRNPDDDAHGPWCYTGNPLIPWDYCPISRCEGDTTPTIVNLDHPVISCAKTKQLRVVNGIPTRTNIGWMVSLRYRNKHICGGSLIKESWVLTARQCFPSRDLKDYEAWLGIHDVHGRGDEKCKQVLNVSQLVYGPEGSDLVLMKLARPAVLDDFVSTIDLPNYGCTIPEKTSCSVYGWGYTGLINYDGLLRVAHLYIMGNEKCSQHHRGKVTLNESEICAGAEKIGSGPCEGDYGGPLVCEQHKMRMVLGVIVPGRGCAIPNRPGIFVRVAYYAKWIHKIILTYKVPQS
UniProt Q08048: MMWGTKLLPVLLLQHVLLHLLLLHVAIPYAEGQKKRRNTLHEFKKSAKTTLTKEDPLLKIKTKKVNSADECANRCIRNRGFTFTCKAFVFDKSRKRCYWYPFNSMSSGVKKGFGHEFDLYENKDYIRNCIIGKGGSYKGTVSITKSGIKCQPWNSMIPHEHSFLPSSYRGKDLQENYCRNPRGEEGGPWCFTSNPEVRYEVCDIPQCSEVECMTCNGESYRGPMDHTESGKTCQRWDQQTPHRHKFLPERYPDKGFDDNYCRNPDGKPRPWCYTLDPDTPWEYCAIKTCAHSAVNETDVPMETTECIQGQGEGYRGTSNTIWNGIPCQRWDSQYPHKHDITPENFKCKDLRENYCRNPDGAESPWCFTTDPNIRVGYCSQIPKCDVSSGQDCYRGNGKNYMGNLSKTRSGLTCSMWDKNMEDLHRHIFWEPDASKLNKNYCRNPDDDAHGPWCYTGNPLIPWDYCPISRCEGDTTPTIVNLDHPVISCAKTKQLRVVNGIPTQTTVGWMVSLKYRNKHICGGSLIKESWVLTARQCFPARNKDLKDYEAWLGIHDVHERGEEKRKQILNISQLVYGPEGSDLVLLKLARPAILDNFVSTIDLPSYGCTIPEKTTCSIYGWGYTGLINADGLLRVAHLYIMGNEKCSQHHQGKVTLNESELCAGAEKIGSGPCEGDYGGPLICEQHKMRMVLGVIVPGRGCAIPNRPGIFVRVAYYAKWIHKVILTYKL

Tests used:
[1] = molecular target: reduced recombinant hHGF (human) (UniProt P14210); assay: immunoblot, reduced SDS-PAGE
[2] = molecular target: human HGF (recombinant hHGF protein of Example 3) (human) (UniProt P14210); assay: SPR, immobilised antibody, 25 C
[3] = molecular target: reduced recombinant hHGF (human) (UniProt P14210); assay: immunoblot, reduced SDS-PAGE, antibody 5 µg/mL, exposure 3-5 min
[4] = molecular target: human HGF (recombinant hHGF protein of Example 3) (human) (UniProt P14210); assay: SPR, immobilised antibody, 25 C, yes/no
[5] = molecular target: mouse-human-mouse chimeric HGF containing human V495-L585 (mouse HGF with human HGF V495-L585) (UniProt Q08048); assay: SPR, immobilised antibody, 25 C
[6] = molecular target: mouse-human-mouse chimeric HGF containing human V495-L585 (mouse HGF with human HGF V495-L585) (UniProt Q08048); assay: SPR, immobilised antibody, 25 C, yes/no

Measured: binding

B1: anti-hHGF monoclonal antibody 3B6 (antibody, mouse IgG1, kappa, V domains shown)
VH: QVQLQQSGAELVRPGSSVKISCKASGYVFSSYWMNWVKQRPGQGLEWIGQIYPGDGDSNYNGNFKGKATLTADKSSSTAYMQLSSLTSEDSAVYFCASQLGLRENYFDYWGQGTTLTVSS
VL: DIKMTQSPSSMYASLGERVTITCKASQDIKSYLSWFQQKPGKSPKTLIYRVNRLVDGVPSRFSGSGSGQDSSLTITSLENEDMGIYYCLQYDEFPFTFGGGTKLEIKR
binds: [1] | [2] | [3] | [4]

B2: anti-hHGF monoclonal antibody 1F3 (antibody, mouse IgG1, kappa, V domains shown)
VH: EVQLVESGGGLVQSGGSLKLSCAASGFTFSNYFMSWVRQTPEKRLEWVAYISSGGGSTYYPDSVKGRFTISRDNAKNTLYLQMSSLKSEDTAMYYCVRQGDGYYGDYAMDYWGQGTSVTVSS
VL: DIQMTQSPASLSVSVGETVTITCRASENIYSNLAWYQQKQGKSPQLLVYDATHLPDGVPSRFSGSGSGTQFSLKINSLQSEDFGSYYCQHFWGTPYTFGGGTRLEIKR
binds: all assays above

B3: anti-hHGF monoclonal antibody 1A3 (antibody, mouse IgG1, kappa, V domains shown)
VH: EVQLVESGGGLVQPGGSLKLSCAASEFTFSNYYMSWVRQTPEKRLQWVAYISPGGGSSYYPASVKGRFTISRDNAKNTLYLQMSSLKSEDTAMYYCARQGDGYYGDYAMDYWGQGTSVTVSS
VL: DIQMTQSPASLSVSVGETVTITCRASENIYSNLAWYQQKQGKSPQLLVYAATNLADGVPSRFSGSGSGTQFSLKINSLQSEDFGTYYCQHFWGTPYTFGGGTKLEIKR
binds: [1] | [2] | [3] | [4]

B4: anti-hHGF monoclonal antibody 1D3 (antibody, mouse IgG1, kappa, V domains shown)
VH: EVQLVESGGGLVQPGGSLKLSCAASGFTFSDYYMSWVRQTPEKRLEWVAYISSGGGSTYYPDSVKGRFTISRDNAKNTLYLQMSSLKSEDTAIYYCVRQGDGYYGDYAMDYWGQGTSVIVSS
VL: DIQMTQSPASLSVSVGETVTITCRTSENIYSNLAWYQQKQGKSPQLLIYAATNLADGVPSRFSGSGSGTQFSLRINSLQSEDFGRYYCQHFWGTPYTFGGGTKLEIKR
binds: all assays above

B5: anti-hHGF monoclonal antibody 2F8 (antibody, mouse IgG1, kappa, V domains shown)
VH: QVQLKQSGAELVRPGTSVKMSCKASGYTFTTYYIHWVNQRPGQGLEWIGKIGPGSGSTYYNEMFKDKATLTVDTSSSTAYMQLSSLTSDDSAVYFCARRGLGRGFDYWGQGTTLTVSS
VL: DIVLTQSPASLAVSLGQRATISCKASQSVDYDGNSYINWYQQKPGQPPKVLIYVASNLESGIPARFSGSGSGTDFTLNIHPVEEEDAATYYCQQSIEDPPTFGAGTKLELKR
binds: [1] | [2] | [3] | [4]

B6: HE2B8-1 (LR2B8HC + IgG1 G1m(3) allele 1 plus LR2B8LC + Kappa Km(3) allele 1) (antibody, V domains shown)
VH: QVQLVQPGAEVVKPGTSVKLSCKASGYTFTTYWMHWVNQAPGQGLEWIGEINPTNGHTNYNEKFKGKATLTVDKSTSTAYMELSSLRSEDTAVYYCARNYVGSIFDYWGQGTLLTVSS
VL: DIVMTQSPDSMAMSVGERVTLNCKASENVVSYVSWYQQKPGQSPKLLIYGASNRNTGVPDRFSGSGSATDFTLTISSVQAEDVADYHCGQSYNYPYTFGQGTKLEIKR
binds: [5] | [6]

B7: HE2B8-2 (LR2B8HC + IgG1 G1m(3) allele 1 plus LRMR2B8LC + Kappa Km(3) allele 1) (antibody, V domains shown)
VH: QVQLVQPGAEVVKPGTSVKLSCKASGYTFTTYWMHWVNQAPGQGLEWIGEINPTNGHTNYNEKFKGKATLTVDKSTSTAYMELSSLRSEDTAVYYCARNYVGSIFDYWGQGTLLTVSS
VL: DIVMTQSPDSLAMSLGERVTLNCKASENVVSYVSWYQQKPGQSPKLLIYGASNRESGVPDRFSGSGSATDFTLTISSVQAEDVADYHCGQSYNYPYTFGQGTKLEIKR
binds: [5] | [6]

B8: HE2B8-4 (LRMR2B8HC + IgG1 G1m(3) allele 1 plus LRMR2B8LC + Kappa Km(3) allele 1) (antibody, V domains shown)
VH: QVQLVQPGAEVKKPGTSVKLSCKASGYTFTTYWMHWVRQAPGQGLEWIGEINPTNGHTNYNQKFQGRATLTVDKSTSTAYMELSSLRSEDTAVYYCARNYVGSIFDYWGQGTLLTVSS
VL: DIVMTQSPDSLAMSLGERVTLNCKASENVVSYVSWYQQKPGQSPKLLIYGASNRESGVPDRFSGSGSATDFTLTISSVQAEDVADYHCGQSYNYPYTFGQGTKLEIKR
binds: [5] | [6]

B9: HE2B8-3 (LRMR2B8HC + IgG1 G1m(3) allele 1 plus LR2B8LC + Kappa Km(3) allele 1) (antibody, V domains shown)
VH: QVQLVQPGAEVKKPGTSVKLSCKASGYTFTTYWMHWVRQAPGQGLEWIGEINPTNGHTNYNQKFQGRATLTVDKSTSTAYMELSSLRSEDTAVYYCARNYVGSIFDYWGQGTLLTVSS
VL: DIVMTQSPDSMAMSVGERVTLNCKASENVVSYVSWYQQKPGQSPKLLIYGASNRNTGVPDRFSGSGSATDFTLTISSVQAEDVADYHCGQSYNYPYTFGQGTKLEIKR
binds: [5] | [6]
